Data reported in patent US6638941B1 (OSI Pharmaceuticals, Inc., priority 1997, dated 2003).

Experiment: general procedure: solution-phase peptide synthesis; EDCI, HOBt, NMM
Settings: late stage modification step

Ac-Pro-Arg-Pro-Leu-spirolactam-Ala-Pro-Gly-OH
step yield: 98% yield
